# Results published in US6362183B1, “Aromatic sulfonyl alpha-hydroxy hydroxamic acid compounds” (G. D. Searle & Company, priority 1997, dated 2002).
# Some of these results come from one statement about several compounds together. For at least one compound, name, drawing or mass did not settle the structure.
# Target: T1, recombinant human MMP-1 (Homo sapiens, UniProt P03956)
# T1 construct: made in house; host or cells: transfected HT-1080 cells
# T1 sequence (P03956 100-469): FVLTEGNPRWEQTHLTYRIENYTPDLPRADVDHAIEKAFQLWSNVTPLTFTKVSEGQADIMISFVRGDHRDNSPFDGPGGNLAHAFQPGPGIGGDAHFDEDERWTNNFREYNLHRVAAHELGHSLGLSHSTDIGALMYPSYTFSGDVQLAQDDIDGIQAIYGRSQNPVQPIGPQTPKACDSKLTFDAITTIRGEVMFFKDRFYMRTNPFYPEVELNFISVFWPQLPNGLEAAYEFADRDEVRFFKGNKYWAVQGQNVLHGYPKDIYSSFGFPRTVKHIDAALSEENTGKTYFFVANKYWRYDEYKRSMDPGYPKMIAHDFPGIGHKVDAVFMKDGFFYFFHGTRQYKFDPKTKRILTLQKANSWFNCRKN
# Experiment: In vitro metalloprotease inhibition, fluorogenic peptide assay
# Format: biochemical
# Conditions: discussion of Table 51
# Procedure: Briefly, 4-aminophenylmercuric acetate (APMA) or trypsin activated MMPs were incubated with various concentrations of the inhibitor compound at room temperature for 5 minutes.
# More specifically, recombinant human MMP-13 and MMP-1 enzymes were prepared in laboratories of the assignee. MMP-13 was expressed in baculovirus as a proenzyme, and purified first over a heparin agarose column and then over a chelating zinc chloride column. The proenzyme was activated by APMA for use in the assay. MMP-1 expressed in transfected HT-1080 cells was provided by Dr. Howard Welgus of Washington University, St. Louis, Mo. The enzyme was also activated using APMA and was then purified over a hydroxamic acid column.
# MCA-ProLeuGlyLeuDpaAlaArgNH^2, wherein MCA is methoxycoumarin and Dpa is 3-(2,4-dinitrophenyl)-L-2,3-diaminopropionyl alanine.
# The buffer used for assays contained 100 mM Tris-HCl, 100 mM NaCl, 10 mM CaCl2 and 0.05 percent polyethyleneglycol (23) lauryl ether at a pH value of 7.5.
row,SMILES,inhibitory activity against MMP-1 (in words)
1,CC(O)(CS(=O)(=O)c1ccc(NC(=O)c2ccc(Cl)cc2)cc1)C(=O)NO (stereo not shown) [Example 18],virtually eliminating any activity against MMP-1
2,CC(O)(CS(=O)(=O)c1ccc(NC(=O)c2cccc(NCCCCO)c2)cc1)C(=O)NO (stereo not shown) [Example 34],virtually eliminating any activity against MMP-1
3,"Cc1cccc(C(=O)Nc2ccc(S(=O)(=O)CC(C)(O)C(=O)NO)cc2)c1 (stereo not shown) [Example 30, N-[4-[[2-hydroxy-3-(hydroxyamino)-2-methyl-3-oxopropyl]sulfonyl]phenyl]-3-methylbenzamide]",virtually eliminating any activity against MMP-1
4,"CCCCCc1ccc(C(=O)Nc2ccc(S(=O)(=O)CC(C)(O)C(=O)NO)cc2)cc1 (stereo not shown) [Example 14, N-[4-[[2-hydroxy-3-(hydroxyamino)-2-methyl-3-oxopropyl]sulfonyl]phenyl]pentylbenzamide]",virtually eliminating any activity against MMP-1
5,"CCCCOc1ccc(C(=O)Nc2ccc(S(=O)(=O)CC(C)(O)C(=O)NO)cc2)cc1 (stereo not shown) [Example 25, 4-butoxy-N-[4-[[2-hydroxy-3-(hydroxyamino)-2-methyl-3-oxopropyl]sulfonyl]phenyl]benzamide]",virtually eliminating any activity against MMP-1
6,"CCCCc1ccc(C(=O)Nc2ccc(S(=O)(=O)CC(C)(O)C(=O)NO)cc2)cc1 (stereo not shown) [Example 28, 4-butyl-N-[4-[[2-hydroxy-3-(hydroxyamino) -2-methyl-3-oxopropyl]-sulfonyl]phenyl]benzamide]",virtually eliminating any activity against MMP-1
7,"Cc1cccc(NC(=O)Nc2ccc(S(=O)(=O)CC(C)(O)C(=O)NO)cc2)c1 (stereo not shown) [Example 20, N,2-dihydroxy-2-methyl-3-[[4-[[[(3-methylphenyl)amino]carbonyl]amino]phenyl]sulfonyl]propanamide]",virtually eliminating any activity against MMP-1
8,"O=C(Nc1ccc(S(=O)(=O)CC(O)C(=O)NO)cc1)c1ccccc1 (stereo not shown) [Example 23, N-[4-[[2-hydroxy-3-(hydroxyamino)-3-oxopropyl]sulfonyl]phenyl]benzamide]",virtually eliminating any activity against MMP-1
9,"Cc1ccc(NC(=O)Nc2ccc(S(=O)(=O)CC(C)(O)C(=O)NO)cc2)cc1 (stereo not shown) [Example 21, N,2-dihydroxy-2-methyl-3-[[4-[[[(4-methylphenyl)amino]carbonyl]amino]phenyl]sulfonyl]propanamide]",virtually eliminating any activity against MMP-1
10,"CC(O)(CS(=O)(=O)c1ccc(NC(=O)Nc2ccccc2)cc1)C(=O)NO (stereo not shown) [Example 15, N,2-dihydroxy-2-methyl-3-[[4-[((phenylamino)carbonyl)amino]phenyl]sulfonyl]propanamide]",virtually eliminating any activity against MMP-1
11,"CC(O)(CS(=O)(=O)c1ccc(NC(=O)c2ccc(Cl)nc2)cc1)C(=O)NO (stereo not shown) [Example 22, 6-chloro-N-(4-[[2-hydroxy-3-(hydroxyamino)-2-methyl-3-oxopropyl]sulfonyl]phenyl]-3-pyridinecarboxamide]",virtually eliminating any activity against MMP-1
12,COc1cccc(C(=O)Nc2ccc(S(=O)(=O)CC(C)(O)C(=O)NO)cc2)c1 (stereo not shown) [Example 27],virtually eliminating any activity against MMP-1
13,"CC(O)(CS(=O)(=O)c1ccc(NC(=O)c2cccc(N)c2)cc1)C(=O)NO (stereo not shown) [Example 35, 3-amino-N-[4-[[2-hydroxy-3-(hydroxyamino)-2-methyl-3-oxopropyl]-sulfonyl]phenyl]benzamide]",virtually eliminating any activity against MMP-1
14,"CC(O)(CS(=O)(=O)c1ccc(NC(=O)c2cccc(Cl)c2)cc1)C(=O)NO (stereo not shown) [Example 31, 3-chloro-N-[4-[[2-hydroxy-3-(hydroxyamino)-2-methyl-3-oxopropyl]sulfonyl]phenyl]benzamide]",virtually eliminating any activity against MMP-1
15,"Cc1ccccc1NC(=O)Nc1ccc(S(=O)(=O)CC(C)(O)C(=O)NO)cc1 (stereo not shown) [Example 19, N,2-dihydroxy-2-methyl-3-[[4-[[[(2-methylphenyl)amino]carbonyl]amino]phenyl]sulfonyl]propanamide]",virtually eliminating any activity against MMP-1
16,"CCCCCCCOc1ccc(C(=O)Nc2ccc(S(=O)(=O)CC(C)(O)C(=O)NO)cc2)cc1 (stereo not shown) [Example 24, 4-(heptyloxy)-N-[4-[[2-hydroxy-3-(hydroxyamino)-2-methyl-3-oxopropyl]sulfonyl]phenyl]benzamide]",virtually eliminating any activity against MMP-1
17,"CC(C)CC(=O)Nc1ccc(S(=O)(=O)CC(C)(O)C(=O)NO)cc1 (stereo not shown) [Example 17, N-[4-[[2-hydroxy-3-(hydroxyamino)-2-methyl-3-oxopropyl]sulfonyl]phenyl]-3-methylbutanamide]",virtually eliminating any activity against MMP-1
18,CC(O)(CS(=O)(=O)c1ccc(NC(=O)c2cccc([N+](=O)[O-])c2)cc1)C(=O)NO (stereo not shown) [Example 33],virtually eliminating any activity against MMP-1
19,CC(O)(CS(=O)(=O)c1ccc(NC(=O)c2cccc(F)c2)cc1)C(=O)NO (stereo not shown) [Example 29],virtually eliminating any activity against MMP-1
20,"CC(O)(CS(=O)(=O)c1ccc(NC(=O)c2ccc(F)c(F)c2)cc1)C(=O)NO (stereo not shown) [Example 32, 3,4-difluoro-N-[4-[[2-hydroxy-3-(hydroxyamino)-2-methyl-3-oxopropyl]sulfonyl]phenyl]benzamide]",virtually eliminating any activity against MMP-1
21,"CCCc1ccc(C(=O)Nc2ccc(S(=O)(=O)CC(C)(O)C(=O)NO)cc2)cc1 (stereo not shown) [Example 26, N-[4-[[2-hydroxy-3-(hydroxyamino)-2-methyl-3-oxopropyl]-sulfonyl]phenyl]4-propylbenzamide]",virtually eliminating any activity against MMP-1
22,"CC(O)(CS(=O)(=O)c1ccc(NC(=O)c2ccccc2)cc1)C(=O)NO (stereo not shown) [Example 16, N-[4-[[2-hydroxy-3-(hydroxyamino)-2-methyl-3-oxopropyl]-sulfonyl]phenyl]benzamide]",virtually eliminating any activity against MMP-1
